Results as given in article PMC9485058, “Glycosylation of a key cubilin Asn residue results in reduced binding to albumin” (The Journal of Biological Chemistry, 2022).

Experiments:
[1] = biological target: albumin domain III (DIII); assay: MST; Monolith NT.115, standard capillaries, 25 °C, 67 mM NaPO4, 150 mM NaCl, 0.05% Tween 20, pH 7.4 + 1 mM CaCl2; albumin labelled with a fluorescent dye (1:1), cubilin domain unlabelled; both purified
[2] = biological target: albumin FcRn mutant, H464A; assay: as above

binding [1]: binds
binding [2]: binds
B1: PNGaseF-deglycosylated CUB7,8 (domain or fragment, rat, UniProt O70244 1165-1389, looked up)
chain: CGGNLTTPTGVLTSPNYPMPYYHSSECYWRLEASHGSPFELEFQDFHLEHHPSCSLDYLAVFDGPTTNSRLIDKLCGDTTPAPIRSNKDVVLLKLRTDAGQQGRGFEINFRQRCDNVVIVNKTSGILESINYPNPYDKNQRCNWTIQATTGNTVNYTFLGFDVESYMNCSTDYVELYDGPQWMGRYCGNNMPPPGATTGSQLHVLFHTDGINSGEKGFKMQWFTH
modifications: N-glycans removed with PNGaseF
notes: cubilin, rat, CUB7 (1165–1277) and CUB8 (1278–1389) of full length cubilin UniProtKB O70244; also called CUB7,8 after PNGaseF treatment (+); His tagged CUB7,8 domain; not shown: His6, C-terminal, kept

No constants are given. Whether binding was seen depends on the method and setting. A result given as binding can be weak or reduced; the word gives no strength.
